Experimental data: PMC7821181, “MS Binding Assays for Glycine Transporter 2 (GlyT2) Employing Org25543 as Reporter Ligand” (Chemmedchem, 2020)

Key:
hGlyT2 = molecular target: T1, hGlyT2 (Homo sapiens, UniProt Q9Y345); test: GlyT2 MS Binding Assays: competition experiments with Org25543 as reporter ligand; details: Org25543 10 nM, 37 °C, 1 h; mean±SEM, n=3–5; bounds in brackets where less than 50 % inhibition; read-out: Affinity, pKi (GlyT2 MS Binding Assays) (converted)
T1 construct: host or cells: HEK293 cells stably expressing hGlyT2; crude membrane fractions
T1 sequence (Q9Y345 1-797): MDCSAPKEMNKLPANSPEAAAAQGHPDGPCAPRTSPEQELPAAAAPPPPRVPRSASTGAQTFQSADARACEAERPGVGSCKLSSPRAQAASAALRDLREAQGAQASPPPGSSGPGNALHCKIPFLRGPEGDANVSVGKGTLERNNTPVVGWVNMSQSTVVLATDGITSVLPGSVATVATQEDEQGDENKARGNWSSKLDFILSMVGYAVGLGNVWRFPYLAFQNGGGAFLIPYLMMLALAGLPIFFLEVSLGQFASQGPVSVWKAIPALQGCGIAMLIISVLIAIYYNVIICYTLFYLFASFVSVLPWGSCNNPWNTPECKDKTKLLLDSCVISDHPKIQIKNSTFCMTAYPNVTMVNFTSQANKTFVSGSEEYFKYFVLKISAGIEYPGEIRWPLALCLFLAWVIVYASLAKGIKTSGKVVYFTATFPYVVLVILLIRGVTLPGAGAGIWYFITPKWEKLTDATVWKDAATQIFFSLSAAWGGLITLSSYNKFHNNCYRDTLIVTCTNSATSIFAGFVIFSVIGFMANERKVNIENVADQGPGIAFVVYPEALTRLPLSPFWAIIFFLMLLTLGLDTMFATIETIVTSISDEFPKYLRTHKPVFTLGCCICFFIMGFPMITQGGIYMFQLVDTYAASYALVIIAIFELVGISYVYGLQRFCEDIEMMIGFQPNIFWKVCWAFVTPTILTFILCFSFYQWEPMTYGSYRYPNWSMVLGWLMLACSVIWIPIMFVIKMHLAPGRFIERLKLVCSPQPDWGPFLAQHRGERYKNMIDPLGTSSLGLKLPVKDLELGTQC
Text: As already mentioned above, there is a strong need for competitive binding assays addressing GlyT2 as a tool for the identification of new GlyT2 inhibitors as well as the characterization of the binding affinities of the respective ligands. For the development of the desired competitive MS Binding Assay, the general concept of this kind of binding experiments was followed, in which the affinity of a test compound is delineated from its potency to compete out a reporter ligand, in our case Org25543, from its target binding site. Accordingly, the target protein was incubated with a defined concentration of the reporter ligand and increasing concentration of the individual test compound. In detail, the competitors were studied at seven different concentration levels, which covered about three concentration log units, whereas the concentration of Org25543 was fixed to 10 nM. Thereafter, via the developed LC‐ESI‐MS/MS method the amount of bound marker (total binding) was determined for the samples obtained from the individual incubation mixtures by the common workup for MS Binding Assays. Nonspecific binding was again determined in a set of analogous experiments in which GlyT2 membrane fractions were replaced by material subjected to a heat‐shock before. […] The thus determined IC50 values were finally used to calculate the corresponding K i values by means of the Cheng‐Prusoff equation. […]

GlyT2 = details: cited from earlier work

Ki (hGlyT2): 12.6 µM
Compound: O=C(CCCN1CCC(O)(c2ccc(Cl)cc2)CC1)c1ccc(F)cc1 [haloperidol]
pIC50 (literature; calcd) (GlyT2; calcd from literature IC50): 4.89
IC50 (GlyT2; read-out: Biological activity, IC50 (literature)): 13 ± 2 µM
